Results: paper PMC10076330
Results are given in words; binding and its absence hold for the method and conditions named. In cells and extracts the contact can be indirect. Some results given as binding are weak or reduced against the parent protein; the word gives no strength. Values belong to the molecule of their own block, whether it stands above or below them.

Sequences of proteins named here, by UniProt entry; tags and fusion partners are left off.
UniProt P63279: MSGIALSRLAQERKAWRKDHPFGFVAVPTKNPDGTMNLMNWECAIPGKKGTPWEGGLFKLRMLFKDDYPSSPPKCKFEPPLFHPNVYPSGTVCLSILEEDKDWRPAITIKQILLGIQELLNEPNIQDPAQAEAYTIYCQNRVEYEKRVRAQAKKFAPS
UniProt P36405: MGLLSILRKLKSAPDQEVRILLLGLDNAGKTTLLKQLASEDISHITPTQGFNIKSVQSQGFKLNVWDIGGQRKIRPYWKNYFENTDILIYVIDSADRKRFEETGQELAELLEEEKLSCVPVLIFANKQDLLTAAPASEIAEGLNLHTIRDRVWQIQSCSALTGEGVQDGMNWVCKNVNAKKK

How the values were obtained:
[1] = target: UBC9 (SUMO-conjugating enzyme), endogenous (human (endogenous in RCTE)) (UniProt P63279); assay: co-IP; endogenous proteins in RCTE cell lysate; IP buffer (25 mM Tris-HCl pH 7.4, 10 mM KCl, 1.5 mM MgCl2, 1 mM EDTA, 1 mM EGTA, 150 mM NaCl, 0.5% NP-40); primary antibody or IgG control with protein-G beads overnight at 4 °C; western blot; cells with or without irradiation (day 7), WT, ARL3-/- or ARL13B-deficient cells
Flag-UBC9 (human) = Flag-UBC9 (human) (UniProt P63279); assay: co-IP; lysate of transfected HEK293T cells; IP buffer (25 mM Tris-HCl pH 7.4, 10 mM KCl, 1.5 mM MgCl2, 1 mM EDTA, 1 mM EGTA, 150 mM NaCl, 0.5% NP-40); protein-G beads overnight at 4 °C; western blot; with or without overexpressed ARL3 (Fig. 4h)
[2] = target: UBC9 (SUMO-conjugating enzyme), endogenous (human (endogenous in RCTE)) (UniProt P63279); assay: co-IP; RCTE cells overexpressing Myc-ARL3 WT, DA or DN, day 7 after irradiation; endogenous UBC9 immunoprecipitated with Myc-ARL3 or FBF1; western blot
[3] = target: T1, FBF1 (transition fiber protein), endogenous (human (endogenous in RCTE)) (UniProt Q8TES7); assay: co-IP; endogenous proteins in RCTE cell lysate; IP buffer (25 mM Tris-HCl pH 7.4, 10 mM KCl, 1.5 mM MgCl2, 1 mM EDTA, 1 mM EGTA, 150 mM NaCl, 0.5% NP-40); primary antibody or IgG control with protein-G beads overnight at 4 °C; western blot; cells with or without irradiation (day 7), WT, ARL3-/- or ARL13B-deficient cells
T1 sequence: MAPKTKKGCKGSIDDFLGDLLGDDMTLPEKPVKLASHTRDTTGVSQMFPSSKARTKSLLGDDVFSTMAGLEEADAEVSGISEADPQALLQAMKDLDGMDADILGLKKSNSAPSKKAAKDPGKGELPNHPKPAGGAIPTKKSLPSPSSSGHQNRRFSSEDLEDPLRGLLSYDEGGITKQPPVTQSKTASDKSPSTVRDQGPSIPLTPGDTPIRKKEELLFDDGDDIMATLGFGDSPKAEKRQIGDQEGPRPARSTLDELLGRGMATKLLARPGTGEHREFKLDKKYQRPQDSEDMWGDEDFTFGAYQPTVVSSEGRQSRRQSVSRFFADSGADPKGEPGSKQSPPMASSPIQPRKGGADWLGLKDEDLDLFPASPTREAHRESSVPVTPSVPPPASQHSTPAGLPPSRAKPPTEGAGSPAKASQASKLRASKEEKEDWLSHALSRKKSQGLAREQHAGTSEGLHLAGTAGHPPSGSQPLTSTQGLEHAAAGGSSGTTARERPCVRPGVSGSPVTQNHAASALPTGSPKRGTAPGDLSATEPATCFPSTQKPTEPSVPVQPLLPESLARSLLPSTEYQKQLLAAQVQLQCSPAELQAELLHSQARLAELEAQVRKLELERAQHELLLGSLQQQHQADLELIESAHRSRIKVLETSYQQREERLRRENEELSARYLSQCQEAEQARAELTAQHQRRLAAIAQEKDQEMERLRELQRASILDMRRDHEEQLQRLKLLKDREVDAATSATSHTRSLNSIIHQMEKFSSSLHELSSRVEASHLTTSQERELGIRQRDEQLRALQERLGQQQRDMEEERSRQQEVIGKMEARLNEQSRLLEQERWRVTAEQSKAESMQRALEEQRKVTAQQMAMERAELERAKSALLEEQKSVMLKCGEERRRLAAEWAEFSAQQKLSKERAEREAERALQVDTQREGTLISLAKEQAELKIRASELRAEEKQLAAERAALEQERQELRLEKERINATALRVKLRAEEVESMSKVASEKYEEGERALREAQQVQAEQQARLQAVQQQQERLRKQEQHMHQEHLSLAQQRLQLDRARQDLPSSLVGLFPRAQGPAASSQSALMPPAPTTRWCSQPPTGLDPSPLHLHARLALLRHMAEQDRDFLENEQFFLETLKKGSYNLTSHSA

[4] = target: UBC9 (SUMO-conjugating enzyme), endogenous (human (endogenous in RCTE)) (UniProt P63279); assay: as above; remark: listed apart in the source
[5] = target: T2, SENP1 (SUMO protease), endogenous (human (endogenous in RCTE)) (UniProt Q9P0U3); assay: as above
T2 sequence: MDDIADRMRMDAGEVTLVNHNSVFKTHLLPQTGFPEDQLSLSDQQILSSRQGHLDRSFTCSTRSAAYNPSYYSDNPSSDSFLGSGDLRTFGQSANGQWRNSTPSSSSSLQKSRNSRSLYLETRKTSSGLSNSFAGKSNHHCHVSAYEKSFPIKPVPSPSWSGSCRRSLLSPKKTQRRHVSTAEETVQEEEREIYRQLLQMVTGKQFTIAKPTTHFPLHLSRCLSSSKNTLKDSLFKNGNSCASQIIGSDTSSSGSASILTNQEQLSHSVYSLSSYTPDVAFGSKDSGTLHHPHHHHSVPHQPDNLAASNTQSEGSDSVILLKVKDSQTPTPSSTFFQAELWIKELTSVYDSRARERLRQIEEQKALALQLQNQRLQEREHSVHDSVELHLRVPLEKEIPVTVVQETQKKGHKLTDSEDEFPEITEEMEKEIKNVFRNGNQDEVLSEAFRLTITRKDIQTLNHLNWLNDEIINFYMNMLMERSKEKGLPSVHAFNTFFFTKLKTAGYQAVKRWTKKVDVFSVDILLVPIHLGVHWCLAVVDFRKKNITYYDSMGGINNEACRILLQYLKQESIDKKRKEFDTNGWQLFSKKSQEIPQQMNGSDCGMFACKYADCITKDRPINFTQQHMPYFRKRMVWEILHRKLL

[6] = target: UBC9 (SUMO-conjugating enzyme), endogenous (human (endogenous in RCTE)) (UniProt P63279); assay: co-IP; RCTE cells overexpressing Myc-ARL3 WT, DA or DN, day 7 after irradiation; endogenous UBC9 immunoprecipitated with Myc-ARL3 or FBF1; western blot; remark: listed apart in the source

- binding [1]: binds
Molecule: ARL3 (ciliary GTPase), endogenous (from UniProt P36405 1-182)

- binding [3]: binds
Molecule: UBC9 (SUMO-conjugating enzyme), endogenous (from UniProt P63279 1-158)

- binding (Flag-UBC9 (human)): binds
B2: FBF1, expressed in 293T cells (protein, UniProt Q8TES7-6 1-1148)
chain: T1 sequence

Continued, molecule first:

Molecule: ARL3, overexpressed in 293T cells (from UniProt P36405 1-182)
- binding (Flag-UBC9 (human)): binds

Molecule: Myc-ARL3 wild type, overexpressed in RCTE cells (from UniProt P36405 1-182)
- binding [2]: binds

B1: FBF1 (transition fiber protein), endogenous (protein, UniProt Q8TES7-6 1-1148)
chain: T1 sequence
- binding [4]: binds
- binding [5]: binds
- binding [6]: binds
